Laboratory results taken from US20240024501A1.
These are yes or no findings as the source states them, for the method shown. Some results given as binding are weak or reduced against the parent protein; the word gives no strength.

By UniProt entry, the sequences of proteins in these tests, tags left out. Residues count along the entry.
UniProt Q15116, residues 25-167: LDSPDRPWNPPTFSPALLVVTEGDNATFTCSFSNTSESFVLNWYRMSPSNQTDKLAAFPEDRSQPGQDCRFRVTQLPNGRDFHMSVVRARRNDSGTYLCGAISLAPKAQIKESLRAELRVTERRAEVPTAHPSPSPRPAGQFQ

B1: PD1-IL2-R02-C03 (scFv)
scFv: QVQLVQSGAEVKKPGASVKVSCKASGYTFPRYHIHWVRQAPGQGLEWMGMINPSGGTTTYAQKFQGRVTMTRDTSTSTVYMELSSLRSEDTAVYYCARDTGLGYYYGSGDFDYWGQGTLVTVSSASGGGGSGGGGSGGGGSHASDIQMTQSPSSLSASVGDRVTITCRASQSISSWLAWYQQKPGKAPKLLIYAASSLQSGVPSRFSGSGSGTDFTLTISSLQPEDFATYYCQQSHSFPLTFGGGTKVEIK
B2: PD1-IL2-R02-C02 (scFv)
scFv: QVQLVQSGAEVKKPGVSVKVSCKASGYTFPRSYIHWVRQAPGQGLEWMGWINPHSGDTYYAQNFQGRVTMTRDTSTSTVYMELSSLRSEDTAVYYCARDTGLGYYYGSGDFDYWGQGTLVTVSSASGGGGSGGGGSGGGGSHASDIQMTQSPSSLSASVGDRVTITCRASQSISRYLNWYQQKPGKAPKLLIYTASSLQSGVPSRFSGSGSGTDFTLTISSLQPEDFATYYCQQANRFPLTFGPGTKVDIK
B3: PD1-IL2-R07-A09 (scFv)
scFv: QVQLVQSGAEVKKPGASVKVSCKASGYTFTSYYMHWVRQAPGQGLEWMGIINPSDGSTTYAQSFQGRVTMTRDTSTSTVYMELSSLRSEDTAVYYCASGWDVWGQGTLVTVSSASGGGGSGGGGSGGGGSHASDIVMTQSPDSLAVSLGERATINCKSSQSVFSSANNKNYLAWYQQKPGQPPKLLIYWASTRESGVPDRFSGSGSGTDFTLTISSLQAEDVAVYYCQQYFGTPVTFGGGTKVEIK

Biological target: PD-1 (human) (UniProt Q15116)
Assay: HTRF

binding, binds:
B1, B2, B3
